Results taken from the supplement of paper PMC9233669.
Variants at the background level are over-represented here.

Tests used:
biotinyl-Trp-oxazolone = assay: self-aminoacylation, catalytic enhancement (BWO) (fold over background); higher = more active; k-Seq, kA / k0A0; sequences stand for … in GGGAAUGGAUCCACAUCUACGAAUUC…UUCACUGCAGACUUGACGAAGCUG
Summary of the method: (§1)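 Working in 50 μL HEPES/NaCl/KCl/MgCl2/CaCl2 buffer with 5% acetonitrile at pH 6.9–7.0, mutagenized RNA pools (0.43 μM; 21-nt variable region) were reacted with 2–1250 μM of each biotinyl-aminoacyl-oxazolone for 90 minutes at room temperature. Streptavidin capture followed, with quantification by triplicate qPCR and Illumina sequencing. Catalytic enhancement is reported as median kA over the uncatalyzed rate, the low-activity peak of a bimodal Gaussian fit to the data.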

biotinyl-Val-oxazolone = assay: self-aminoacylation, catalytic enhancement (BVO) (fold over background); higher = more active; k-Seq, kA / k0A0; sequences stand for … in GGGAAUGGAUCCACAUCUACGAAUUC…UUCACUGCAGACUUGACGAAGCUG
Summary of the method: as §1

biotinyl-Ile-oxazolone = assay: self-aminoacylation, catalytic enhancement (BIO) (fold over background); higher = more active; k-Seq, kA / k0A0; sequences stand for … in GGGAAUGGAUCCACAUCUACGAAUUC…UUCACUGCAGACUUGACGAAGCUG
Summary of the method: as §1

biotinyl-Met-oxazolone = assay: self-aminoacylation, catalytic enhancement (BMO) (fold over background); higher = more active; k-Seq, kA / k0A0; sequences stand for … in GGGAAUGGAUCCACAUCUACGAAUUC…UUCACUGCAGACUUGACGAAGCUG
Summary of the method: as §1

biotinyl-Leu-oxazolone = assay: self-aminoacylation, catalytic enhancement (BLO) (fold over background); higher = more active; k-Seq, kA / k0A0; sequences stand for … in GGGAAUGGAUCCACAUCUACGAAUUC…UUCACUGCAGACUUGACGAAGCUG
Summary of the method: as §1

Sequence | self-aminoacylation (biotinyl-Trp-oxazolone) | self-aminoacylation (biotinyl-Val-oxazolone) | self-aminoacylation (biotinyl-Ile-oxazolone) | self-aminoacylation (biotinyl-Met-oxazolone) | self-aminoacylation (biotinyl-Leu-oxazolone)
CUACUGCAAACAAUUGGUCUG [Fam1A.1 aminoacylation ribozyme variant] | 0.956 | 1.07 | 1.19 | 0.966 | 0.823
CUACUUCAAACCAUCGGUCGG [Fam1A.1 aminoacylation ribozyme variant] | 0.759 | 1.04 | 1.1 | 1.15 | 1.32
CUACUUCCAACGAUCGGUCUG [Fam1A.1 aminoacylation ribozyme variant] | 0.897 | 1.11 | 0.94 | 0.97 | 0.833
CUUCACCUAGGUCAUGGGGUG [Fam2.2 aminoacylation ribozyme variant] | 3.7 | 2.7 | 2.5 | 2.84 | 4.06
CUUCUUCAAACAAUCGGUCAG [Fam1A.1 aminoacylation ribozyme variant] | 2.59 | 0.734 | 0.818 | 0.655 | 0.623
GAGGUUGCUAAUAGUCGCAAG [Fam3.1 aminoacylation ribozyme variant] | 1.45 | 1.68 | 1.61 | 1.82 | 1.54
GAGUUUGCUAAUCGUCGCAAG [Fam3.1 aminoacylation ribozyme variant] | 1.92 | 1.3 | 1.45 | 1.44 | 1.3
GCACACUUCAAGCAAACGGUC [Fam1B.1 aminoacylation ribozyme variant] | 1.31 | 1.47 | 1.61 | 1.19 | 1.28
GUACAUCAAACAAUCGGUCUG [Fam1A.1 aminoacylation ribozyme variant] | 1.4 | 1.25 | 1.18 | 0.97 | 1.11
GUACUUCAAACAAUCGGUGUG [Fam1A.1 aminoacylation ribozyme variant] | 10.2 | 1.97 | 2.12 | 2.77 | 3.35
GUUACCCUGGUCAUCUAGUGA [Fam2.1 aminoacylation ribozyme variant] | 13.4 | 6.05 | 5.9 | 12 | 11.7
UCACACUUCAAGCAACCGGUC [Fam1B.1 aminoacylation ribozyme variant] | 0.796 | 1.05 | 0.984 | 0.801 | 0.739
UCACACUUCAAGCCAUCGGUC [Fam1B.1 aminoacylation ribozyme variant] | 0.854 | 1.24 | 1.01 | 1.08 | 1.1
